The data set is described as follows: general procedure: Fmoc solid-phase peptide synthesis; Rink amide resin; HBTU/HOBt/DIEA. The conditions noted are these: whole synthesis, scale 0.2 mmol.

Consider H-GPLGVRGK-NH2, for which the isolated mass came to 93 mg and the isolated yield is given as 60%.

(Values after US8980543B2 (Canon Kabushiki Kaisha, priority 2007, dated 2015).)
